Assay: peptide synthesis
Conditions: late stage modification step

(4S,7S,10S,13S,Z)-10-Benzyl-7,13-diisobutyl-14-((S)-2-methyloxiran-2-yl)-1-morpholino-2,5,8,11,17-pentaoxo-4-phenethyl-3,6,9,12,15,16-hexaazahenicos-14-en-21-oic acid
step yield: 29%
